Experiment [1] deals with recombinant human FGFR1-Fc (Sino-Biological) (human) (UniProt P11362). Description: ELISA, coated FGFR1-Fc 2 ug/ml, gremlin-his (ACRO) titrated from 2 ug/ml. Background: ELISA stands for enzyme-linked immunosorbent assay.
Experiment [2] has the same target. Description: ELISA: coated FGFR1-Fc 2 µg/ml, gremlin-his titrated, anti-his HRP.
The target of experiment [3] is T1, human BMP7 (R&D) (human), P18075.
T1 chain: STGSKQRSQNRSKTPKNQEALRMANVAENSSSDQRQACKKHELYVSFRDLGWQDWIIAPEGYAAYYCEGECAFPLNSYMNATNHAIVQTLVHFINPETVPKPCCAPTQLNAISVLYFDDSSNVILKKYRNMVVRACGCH
In words: ELISA: coated BMP7, gremlin titrated (sheet title: BMP2/4/7 binding to human gremlin-his). As to conditions: remark: other sources report otherwise.

Amino acid sequences for entries named in this document (tags omitted). Residues count along the entry.
UniProt P11362, residues 22-376: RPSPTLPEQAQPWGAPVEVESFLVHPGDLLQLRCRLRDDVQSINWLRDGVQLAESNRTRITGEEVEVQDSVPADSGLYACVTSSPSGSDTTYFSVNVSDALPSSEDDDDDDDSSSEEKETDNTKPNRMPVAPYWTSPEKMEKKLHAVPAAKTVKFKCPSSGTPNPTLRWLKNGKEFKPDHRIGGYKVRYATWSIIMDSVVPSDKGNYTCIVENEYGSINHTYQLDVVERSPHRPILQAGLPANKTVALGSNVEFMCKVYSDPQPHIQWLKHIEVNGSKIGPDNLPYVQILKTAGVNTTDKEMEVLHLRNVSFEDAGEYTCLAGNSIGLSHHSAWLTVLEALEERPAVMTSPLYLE

Experiment [4] shares this target. Description: ELISA, coated BMP7 0.5 ug/ml. To be noted: remark: other sources report otherwise.

These are yes or no findings as the source states them, for the method shown. Some binding calls cover weakened binding; strength is not graded here. Sequences can lack the tags named with a protein.

B1: HGREM1-His (ACRO) (ligand, not shown: small tags and cut ends)
chain: KKKGSQGAIPPPDKAQHNDSEQTQSPQQPGSRNRGRGQGRGTAMPGEEVLESSQEALHVTERKYLKRDWCKTQPLKQTIHEEGCNSRTIINRFCYGQCNSFYIPRHIRKEEGSFQSCSFCKPKKFTTMMVTLNCPELQPPTKKKRVTRVKQCRCISIDLD
Regarding B1, the binding entry in experiment [1] and in experiment [2] was “binds” in each case.

B2: HGREM1-His (ACRO), O60565 25-184 (ligand, not shown: small tags and cut ends)
chain: B1 chain
For B2, the binding result in experiment [3] is “binds”.

B3: Gremlin-Fc, O60565 25-184 (Fc fusion, not shown: a dimerising Fc or GST)
chain: B1 chain
Regarding B3, in experiment [4], the binding entry is on record as “binds”.

Values taken from patent publication US20240294622A1.
